Results reported in the supplement of paper PMC10849652.
The other results are listed elsewhere or left out.

Amino acid sequences for entries named in this document (tags omitted). A change or cut given only in a name is not applied to a line headed by its entry.
UniProt Q8IUI8: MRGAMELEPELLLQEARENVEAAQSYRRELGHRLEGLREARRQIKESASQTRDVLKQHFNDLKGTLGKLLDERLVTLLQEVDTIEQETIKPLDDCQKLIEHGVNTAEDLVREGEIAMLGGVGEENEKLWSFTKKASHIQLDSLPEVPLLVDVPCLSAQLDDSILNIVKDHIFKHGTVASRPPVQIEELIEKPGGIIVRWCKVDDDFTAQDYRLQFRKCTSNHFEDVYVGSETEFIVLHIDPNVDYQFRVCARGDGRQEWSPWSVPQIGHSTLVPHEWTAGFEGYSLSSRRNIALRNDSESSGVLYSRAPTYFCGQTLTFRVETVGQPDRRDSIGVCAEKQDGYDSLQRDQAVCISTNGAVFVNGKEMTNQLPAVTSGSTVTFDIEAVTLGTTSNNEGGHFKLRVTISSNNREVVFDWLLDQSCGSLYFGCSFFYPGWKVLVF
UniProt Q13616, whole entry, looked up: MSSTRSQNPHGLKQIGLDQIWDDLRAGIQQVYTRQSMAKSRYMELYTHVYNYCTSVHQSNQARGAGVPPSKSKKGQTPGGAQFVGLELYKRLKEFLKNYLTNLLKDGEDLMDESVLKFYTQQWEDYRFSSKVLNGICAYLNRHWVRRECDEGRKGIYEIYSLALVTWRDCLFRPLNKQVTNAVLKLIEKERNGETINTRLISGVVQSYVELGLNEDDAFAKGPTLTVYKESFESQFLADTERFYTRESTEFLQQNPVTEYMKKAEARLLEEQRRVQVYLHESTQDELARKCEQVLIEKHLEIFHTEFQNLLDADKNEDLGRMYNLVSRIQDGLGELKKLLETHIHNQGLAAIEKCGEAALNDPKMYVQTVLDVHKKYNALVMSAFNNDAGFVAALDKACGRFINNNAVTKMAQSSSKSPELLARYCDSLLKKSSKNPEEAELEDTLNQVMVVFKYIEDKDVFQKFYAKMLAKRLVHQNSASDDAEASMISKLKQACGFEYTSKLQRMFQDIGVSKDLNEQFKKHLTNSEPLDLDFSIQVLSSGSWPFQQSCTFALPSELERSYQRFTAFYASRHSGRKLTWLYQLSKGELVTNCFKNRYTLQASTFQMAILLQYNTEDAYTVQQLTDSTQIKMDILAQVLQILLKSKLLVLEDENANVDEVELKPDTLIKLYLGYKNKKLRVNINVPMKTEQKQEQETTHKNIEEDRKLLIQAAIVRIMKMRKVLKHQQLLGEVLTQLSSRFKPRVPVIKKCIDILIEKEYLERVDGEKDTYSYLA
UniProt O75534: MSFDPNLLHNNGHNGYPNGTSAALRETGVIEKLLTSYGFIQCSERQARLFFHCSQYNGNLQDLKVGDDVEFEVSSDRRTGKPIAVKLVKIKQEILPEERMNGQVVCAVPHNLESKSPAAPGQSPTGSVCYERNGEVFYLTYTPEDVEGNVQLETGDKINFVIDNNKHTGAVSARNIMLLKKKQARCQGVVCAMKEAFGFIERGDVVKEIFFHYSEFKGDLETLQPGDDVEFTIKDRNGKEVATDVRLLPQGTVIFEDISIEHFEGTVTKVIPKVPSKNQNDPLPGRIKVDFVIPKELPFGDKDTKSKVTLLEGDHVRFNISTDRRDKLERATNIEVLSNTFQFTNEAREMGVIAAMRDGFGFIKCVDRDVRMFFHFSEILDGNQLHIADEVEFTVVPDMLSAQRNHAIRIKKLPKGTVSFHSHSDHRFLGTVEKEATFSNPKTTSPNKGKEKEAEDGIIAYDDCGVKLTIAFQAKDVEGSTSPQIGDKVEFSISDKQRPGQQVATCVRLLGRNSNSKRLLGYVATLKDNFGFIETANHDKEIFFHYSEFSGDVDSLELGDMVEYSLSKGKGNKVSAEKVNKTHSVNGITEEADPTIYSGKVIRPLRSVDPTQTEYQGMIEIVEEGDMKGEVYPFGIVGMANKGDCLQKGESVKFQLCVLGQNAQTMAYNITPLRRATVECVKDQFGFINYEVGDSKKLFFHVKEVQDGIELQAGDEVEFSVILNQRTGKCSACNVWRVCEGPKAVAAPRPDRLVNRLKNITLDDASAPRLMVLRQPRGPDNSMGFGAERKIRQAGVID
UniProt E9PJD7, whole entry, looked up: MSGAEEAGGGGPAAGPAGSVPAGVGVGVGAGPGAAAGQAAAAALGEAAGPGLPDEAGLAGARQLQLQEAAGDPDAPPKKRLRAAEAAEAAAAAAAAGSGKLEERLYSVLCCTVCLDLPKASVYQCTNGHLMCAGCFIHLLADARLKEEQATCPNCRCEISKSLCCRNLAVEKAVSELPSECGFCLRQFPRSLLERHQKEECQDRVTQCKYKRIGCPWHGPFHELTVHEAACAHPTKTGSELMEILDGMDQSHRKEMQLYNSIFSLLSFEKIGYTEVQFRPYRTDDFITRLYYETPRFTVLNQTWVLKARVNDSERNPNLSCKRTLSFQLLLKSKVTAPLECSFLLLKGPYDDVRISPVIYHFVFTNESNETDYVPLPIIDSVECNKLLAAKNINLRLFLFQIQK
UniProt P41240: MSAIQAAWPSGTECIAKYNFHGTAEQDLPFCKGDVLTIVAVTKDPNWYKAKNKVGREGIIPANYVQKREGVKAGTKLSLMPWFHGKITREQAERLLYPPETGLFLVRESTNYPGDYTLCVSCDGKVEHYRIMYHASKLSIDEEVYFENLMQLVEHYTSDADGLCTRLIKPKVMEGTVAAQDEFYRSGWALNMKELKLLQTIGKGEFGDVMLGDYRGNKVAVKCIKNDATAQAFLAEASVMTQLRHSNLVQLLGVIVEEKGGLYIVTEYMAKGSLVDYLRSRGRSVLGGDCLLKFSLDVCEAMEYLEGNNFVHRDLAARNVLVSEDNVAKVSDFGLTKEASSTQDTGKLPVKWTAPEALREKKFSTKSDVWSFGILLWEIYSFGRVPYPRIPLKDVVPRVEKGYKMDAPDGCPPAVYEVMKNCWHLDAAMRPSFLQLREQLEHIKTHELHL
UniProt Q05048: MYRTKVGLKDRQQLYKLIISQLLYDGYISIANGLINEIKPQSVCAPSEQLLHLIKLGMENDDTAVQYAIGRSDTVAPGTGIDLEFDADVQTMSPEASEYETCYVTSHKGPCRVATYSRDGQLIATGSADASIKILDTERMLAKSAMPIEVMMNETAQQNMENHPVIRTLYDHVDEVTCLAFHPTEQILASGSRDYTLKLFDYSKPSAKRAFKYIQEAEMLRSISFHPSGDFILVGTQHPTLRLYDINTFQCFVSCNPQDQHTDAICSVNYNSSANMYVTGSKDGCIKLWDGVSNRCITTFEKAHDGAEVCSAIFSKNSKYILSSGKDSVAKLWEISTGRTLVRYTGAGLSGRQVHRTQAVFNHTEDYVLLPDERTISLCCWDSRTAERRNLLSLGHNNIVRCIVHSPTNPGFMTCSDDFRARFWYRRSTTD
UniProt Q7L1T6: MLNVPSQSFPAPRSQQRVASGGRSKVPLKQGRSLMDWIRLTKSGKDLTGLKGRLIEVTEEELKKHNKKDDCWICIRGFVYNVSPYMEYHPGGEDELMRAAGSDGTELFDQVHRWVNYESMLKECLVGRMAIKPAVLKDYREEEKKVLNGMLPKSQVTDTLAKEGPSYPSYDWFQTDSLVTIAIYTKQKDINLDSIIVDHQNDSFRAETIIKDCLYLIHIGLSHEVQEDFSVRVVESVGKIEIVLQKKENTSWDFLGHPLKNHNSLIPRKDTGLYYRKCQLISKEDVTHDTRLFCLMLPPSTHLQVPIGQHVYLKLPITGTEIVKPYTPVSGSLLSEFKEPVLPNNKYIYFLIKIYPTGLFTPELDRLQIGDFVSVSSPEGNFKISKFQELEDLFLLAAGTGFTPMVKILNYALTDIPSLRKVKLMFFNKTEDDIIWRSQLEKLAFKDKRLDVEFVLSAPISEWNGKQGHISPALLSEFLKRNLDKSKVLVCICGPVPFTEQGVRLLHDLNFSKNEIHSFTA
UniProt Q5JQC4: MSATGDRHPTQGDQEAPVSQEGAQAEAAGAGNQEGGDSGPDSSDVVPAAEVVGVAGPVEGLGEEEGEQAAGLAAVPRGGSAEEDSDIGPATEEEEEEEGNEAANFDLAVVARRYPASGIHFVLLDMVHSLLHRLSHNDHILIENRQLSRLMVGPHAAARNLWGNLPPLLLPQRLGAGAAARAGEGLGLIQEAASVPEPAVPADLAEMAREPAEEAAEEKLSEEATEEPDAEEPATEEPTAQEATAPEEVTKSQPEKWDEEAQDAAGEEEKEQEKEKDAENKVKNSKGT
UniProt Q9Y5B0: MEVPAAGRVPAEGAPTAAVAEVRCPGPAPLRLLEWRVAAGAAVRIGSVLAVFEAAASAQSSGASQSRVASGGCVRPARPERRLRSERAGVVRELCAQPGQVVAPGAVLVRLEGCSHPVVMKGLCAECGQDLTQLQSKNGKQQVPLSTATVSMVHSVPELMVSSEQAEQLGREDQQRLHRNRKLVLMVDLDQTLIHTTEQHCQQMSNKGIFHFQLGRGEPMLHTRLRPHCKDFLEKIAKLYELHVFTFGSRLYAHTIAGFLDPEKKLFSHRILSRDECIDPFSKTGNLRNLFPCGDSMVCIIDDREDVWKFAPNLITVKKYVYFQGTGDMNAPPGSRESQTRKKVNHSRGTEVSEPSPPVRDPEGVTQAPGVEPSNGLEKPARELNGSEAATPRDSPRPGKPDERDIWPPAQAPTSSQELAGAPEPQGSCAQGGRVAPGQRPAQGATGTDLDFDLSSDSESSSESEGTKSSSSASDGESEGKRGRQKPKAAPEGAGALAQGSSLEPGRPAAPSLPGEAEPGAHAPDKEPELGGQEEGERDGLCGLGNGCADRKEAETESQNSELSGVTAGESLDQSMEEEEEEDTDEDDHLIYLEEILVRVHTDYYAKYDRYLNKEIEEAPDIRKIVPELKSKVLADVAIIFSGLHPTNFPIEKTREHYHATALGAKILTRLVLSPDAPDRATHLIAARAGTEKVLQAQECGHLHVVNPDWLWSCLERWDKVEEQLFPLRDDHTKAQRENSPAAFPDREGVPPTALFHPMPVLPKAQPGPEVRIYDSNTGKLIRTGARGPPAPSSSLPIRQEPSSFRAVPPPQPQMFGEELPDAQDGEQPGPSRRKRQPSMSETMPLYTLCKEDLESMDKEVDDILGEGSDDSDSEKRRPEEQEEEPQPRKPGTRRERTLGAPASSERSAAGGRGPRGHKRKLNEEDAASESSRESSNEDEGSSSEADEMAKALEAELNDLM
UniProt Q9BZJ0: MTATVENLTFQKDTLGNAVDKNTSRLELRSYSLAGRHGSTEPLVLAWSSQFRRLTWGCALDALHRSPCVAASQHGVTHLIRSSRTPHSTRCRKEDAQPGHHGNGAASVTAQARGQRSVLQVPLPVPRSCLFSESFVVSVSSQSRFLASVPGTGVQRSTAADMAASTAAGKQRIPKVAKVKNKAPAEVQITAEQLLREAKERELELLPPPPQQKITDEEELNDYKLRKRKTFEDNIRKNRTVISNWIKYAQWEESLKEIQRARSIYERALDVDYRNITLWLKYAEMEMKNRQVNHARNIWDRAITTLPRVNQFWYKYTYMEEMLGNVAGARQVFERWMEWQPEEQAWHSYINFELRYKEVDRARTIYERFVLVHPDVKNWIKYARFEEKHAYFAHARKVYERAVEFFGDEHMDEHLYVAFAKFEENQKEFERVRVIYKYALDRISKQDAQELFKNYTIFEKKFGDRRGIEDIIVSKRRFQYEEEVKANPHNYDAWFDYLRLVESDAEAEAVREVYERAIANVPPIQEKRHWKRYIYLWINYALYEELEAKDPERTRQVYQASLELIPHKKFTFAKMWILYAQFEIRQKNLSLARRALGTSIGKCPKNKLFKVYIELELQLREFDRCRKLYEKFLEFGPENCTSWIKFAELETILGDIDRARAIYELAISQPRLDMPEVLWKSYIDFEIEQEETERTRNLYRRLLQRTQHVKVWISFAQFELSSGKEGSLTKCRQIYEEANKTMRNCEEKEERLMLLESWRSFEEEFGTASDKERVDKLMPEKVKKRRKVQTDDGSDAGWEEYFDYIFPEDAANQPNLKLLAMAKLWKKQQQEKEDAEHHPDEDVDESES
UniProt A4D126: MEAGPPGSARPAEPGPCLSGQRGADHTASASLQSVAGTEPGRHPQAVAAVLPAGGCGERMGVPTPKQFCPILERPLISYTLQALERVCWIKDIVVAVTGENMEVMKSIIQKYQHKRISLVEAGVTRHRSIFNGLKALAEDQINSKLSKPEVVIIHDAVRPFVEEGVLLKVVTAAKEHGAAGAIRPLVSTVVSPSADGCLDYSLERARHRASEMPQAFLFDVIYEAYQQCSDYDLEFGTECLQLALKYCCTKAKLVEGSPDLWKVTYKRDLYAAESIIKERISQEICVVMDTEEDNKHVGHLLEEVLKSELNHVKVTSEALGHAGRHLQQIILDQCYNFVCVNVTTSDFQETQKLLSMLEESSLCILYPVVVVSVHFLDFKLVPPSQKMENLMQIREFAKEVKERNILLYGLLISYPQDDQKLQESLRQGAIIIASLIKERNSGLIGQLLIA
UniProt P02511: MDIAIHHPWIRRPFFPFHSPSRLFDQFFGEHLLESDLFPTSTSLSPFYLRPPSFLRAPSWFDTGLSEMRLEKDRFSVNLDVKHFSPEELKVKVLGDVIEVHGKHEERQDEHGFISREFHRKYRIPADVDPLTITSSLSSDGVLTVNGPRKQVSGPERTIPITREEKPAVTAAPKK

Tests used:
Assay in all cases: log2 fold change, soluble protein after heating vs DMSO (PISA); higher = thermal stabilisation; K562 lysate, 10 uM; active = over 0.2 and 3.5 SD of the protein, either way, in both replicates (recomputed)
[1] = compound: NCC(=O)Nc1ccc(-n2nc(C(F)(F)F)cc2-c2ccc3c(ccc4ccccc43)c2)cc1
Outline: (§1)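 Soluble protein was defined as the supernatant remaining after 21,000xg for 90 min, following pooling of heated aliquots and adjustment to 0.5% NP-40 at 4°C. Before that, crude K562 extract at 1 mg/mL protein in PBS pH 7.4 with 1 mM MgCl2 was treated with 10 μM compound for 30 min and heated for 3 min across 48°C-58°C. Quantification used TMTpro 16plex LC-MS/MS with channel sums equalised, and values are log-two fold changes in thermal stability relative to solvent controls from duplicates.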

vorinostat = compound: O=C(CCCCCCC(=O)Nc1ccccc1)NO [vorinostat]
Outline: as §1

silmitasertib = compound: O=C(O)c1ccc2c(c1)nc(Nc1cccc(Cl)c1)c1ccncc12 [silmitasertib]
Outline: as §1

[2] = compound: O=C1NC(=O)C(c2cnc3ccccn23)=C1c1cn2c3c(cc(F)cc13)CN(C(=O)N1CCCCC1)CC2
Outline: as §1

entospletinib = compound: c1cn2cc(-c3ccc4cn[nH]c4c3)nc(Nc3ccc(N4CCOCC4)cc3)c2n1 [entospletinib]
Outline: as §1

| Target | log2 fold change [1] | log2 fold change (vorinostat) | log2 fold change (silmitasertib) | log2 fold change [2] | log2 fold change (entospletinib) |
| --- | --- | --- | --- | --- | --- |
| CRTC2 (UniProt Q53ET0) | inactive: 0.093 | inactive: -0.08 | inactive: -0.047 | inactive: 0.015 | inactive: -0.011 |
| CTBP1 (UniProt Q13363) | inactive: -0.04 | inactive: -0.198 | inactive: -0.011 | inactive: 0.031 | inactive: 0.003 |
| CSNK1G3 (UniProt Q9Y6M4) | inactive: -0.004 | inactive: -0.011 | inactive: 0.055 | inactive: -0.029 | inactive: 0.039 |
| CYB561A3 isoform 2 (UniProt Q8NBI2) | inactive: 0.095 | inactive: -0.051 | inactive: 0.006 | inactive: -0.034 | inactive: 0.092 |
| CRLF3 (UniProt Q8IUI8) | inactive: 0.049 | inactive: -0.149 | inactive: -0.004 | inactive: 0.004 | inactive: 0.002 |
| CRYZ (UniProt Q08257) | inactive: 0.002 | inactive: 0.124 | inactive: -0.022 | inactive: -0.001 | inactive: 0.022 |
| CYB5B (UniProt O43169) | inactive: -0.033 | inactive: 0.032 | inactive: -0.015 | inactive: -0.035 | inactive: -0.023 |
| CTSL (UniProt P07711) | inactive: 0 | inactive: 0.121 | inactive: -0.044 | inactive: 0.051 | inactive: 0.04 |
| CUL1 (UniProt Q13616) | inactive: 0.001 | inactive: 0.072 | inactive: 0.006 | inactive: -0.007 | inactive: 0.009 |
| CSDE1 isoform 4 (UniProt O75534) | inactive: -0.004 | active: -0.33 | inactive: 0.015 | inactive: -0.009 | inactive: 0.04 |
| CRCP (UniProt O75575) | inactive: 0.004 | inactive: 0.072 | inactive: -0.031 | inactive: -0.029 | inactive: -0.018 |
| CUL2 isoform 2 (UniProt Q13617) | inactive: 0.013 | inactive: 0.009 | inactive: -0.005 | inactive: -0.011 | inactive: 0.043 |
| CUTA isoform 2 (UniProt O60888) | inactive: 0.022 | inactive: 0.093 | inactive: -0.075 | inactive: 0.048 | inactive: 0.001 |
| CSTF2T (UniProt Q9H0L4) | inactive: 0.009 | inactive: 0.019 | inactive: -0.033 | inactive: -0.035 | inactive: -0.04 |
| CRELD2 isoform 5 (UniProt Q6UXH1) | inactive: 0.016 | inactive: -0.093 | inactive: -0.218 | inactive: -0.06 | inactive: -0.018 |
| CRIPT (UniProt Q9P021) | inactive: -0.002 | inactive: 0.128 | inactive: 0.031 | inactive: -0.011 | inactive: 0.015 |
| CSTF2 (UniProt P33240) | inactive: 0.001 | inactive: 0.046 | inactive: 0.007 | inactive: 0.013 | inactive: -0.045 |
| CTBS (UniProt Q01459) | inactive: 0.072 | inactive: 0.123 | inactive: -0.017 | inactive: 0.014 | inactive: 0 |
| CYB5R2 (UniProt Q6BCY4) | inactive: 0.01 | inactive: 0.127 | inactive: -0.005 | inactive: -0.025 | inactive: -0.036 |
| CSNK2A2 (UniProt P19784) | inactive: 0.383 | inactive: -0.105 | active: 0.879 | inactive: -0.008 | inactive: 0.466 |
| CT45A10 (UniProt P0DMU9) | inactive: -0.037 | inactive: 0.032 | inactive: -0.023 | inactive: -0.01 | inactive: 0.004 |
| CYHR1 (UniProt E9PJD7) | inactive: 0.016 | inactive: -0.067 | inactive: -0.023 | inactive: 0.03 | inactive: 0.11 |
| CUL4A (UniProt Q13619) | inactive: -0.025 | inactive: -0.047 | inactive: 0.015 | inactive: -0.001 | inactive: -0.004 |
| CTR9 (UniProt Q6PD62) | inactive: -0.023 | inactive: -0.088 | inactive: 0.016 | inactive: -0.029 | inactive: 0.024 |
| CWC27 (UniProt Q6UX04) | inactive: 0.005 | inactive: 0.067 | inactive: -0.01 | inactive: -0.017 | inactive: 0.013 |
| CTBP2 isoform 2 (UniProt P56545) | inactive: 0.041 | inactive: -0.175 | inactive: -0.002 | inactive: -0.006 | inactive: 0.021 |
| CXXC1 isoform 2 (UniProt Q9P0U4) | inactive: -0.008 | inactive: -0.18 | inactive: 0.08 | inactive: 0.027 | inactive: -0.033 |

Some of the entries so far, comma-delimited:
Target,log2 fold change [1],log2 fold change (vorinostat),log2 fold change (silmitasertib),log2 fold change [2],log2 fold change (entospletinib)
CRCP (UniProt O75575),inactive: 0.004,inactive: 0.072,inactive: -0.031,inactive: -0.029,inactive: -0.018
CUL2 isoform 2 (UniProt Q13617),inactive: 0.013,inactive: 0.009,inactive: -0.005,inactive: -0.011,inactive: 0.043

More entries:

| Target | log2 fold change [1] | log2 fold change (vorinostat) | log2 fold change (silmitasertib) | log2 fold change [2] | log2 fold change (entospletinib) |
| --- | --- | --- | --- | --- | --- |
| CSTB (UniProt P04080) | inactive: -0.097 | inactive: 0.125 | inactive: -0.045 | inactive: 0.022 | inactive: -0.007 |
| CSNK1G2 (UniProt P78368) | inactive: -0.019 | inactive: -0.029 | inactive: -0.06 | inactive: -0.025 | inactive: 0.079 |
| CSK (UniProt P41240) | inactive: -0.008 | inactive: -0.262 | inactive: -0.006 | inactive: -0.021 | inactive: 0.195 |
| CTU1 (UniProt Q7Z7A3) | inactive: -0.02 | inactive: -0.116 | inactive: -0.028 | inactive: -0.019 | inactive: -0.034 |
| CUX1 isoform 2 (UniProt Q13948) | inactive: -0.102 | inactive: 0.101 | inactive: 0.086 | inactive: 0.676 | inactive: -0.077 |
| CSTF1 (UniProt Q05048) | inactive: -0.002 | inactive: 0.036 | inactive: -0.033 | inactive: 0.003 | inactive: -0.027 |
| CRBN (UniProt Q96SW2) | inactive: 0.006 | inactive: -0.063 | inactive: -0.01 | inactive: 0.024 | inactive: 0.012 |
| CTF1 (UniProt Q16619) | inactive: -0.153 | inactive: -0.042 | inactive: -0.039 | inactive: 0.112 | inactive: -0.193 |
| CT55 (UniProt Q8WUE5) | inactive: -0.097 | inactive: -0.052 | inactive: 0.005 | inactive: -0.03 | inactive: 0.035 |
| CYB5R4 (UniProt Q7L1T6) | inactive: 0.027 | inactive: -0.084 | inactive: -0.093 | inactive: -0.03 | inactive: -0.011 |
| CSNK1E (UniProt P49674) | inactive: 0.016 | active: -0.419 | inactive: 0.206 | inactive: 0.01 | inactive: 0.012 |
| CUL7 isoform 2 (UniProt Q14999) | inactive: -0.013 | inactive: -0.179 | inactive: 0.077 | inactive: -0.019 | inactive: 0.043 |
| CRTC1 (UniProt Q6UUV9) | inactive: 0.202 | inactive: 0.03 | inactive: -0.005 | inactive: 0 | inactive: -0.121 |
| CUL3 (UniProt Q13618) | inactive: 0.01 | inactive: -0.119 | inactive: 0.023 | inactive: -0.008 | inactive: 0.006 |
| CYB5R3 isoform 3 (UniProt P00387) | inactive: 0.028 | inactive: 0.081 | inactive: -0.044 | inactive: 0.006 | inactive: 0.06 |
| CT47A1 (UniProt Q5JQC4) | inactive: -0.025 | inactive: 0.051 | inactive: -0.057 | inactive: -0.024 | inactive: -0.004 |
| CTDP1 (UniProt Q9Y5B0) | inactive: -0.039 | inactive: -0.232 | inactive: 0.002 | inactive: -0.003 | inactive: 0.008 |
| CRNKL1 (UniProt Q9BZJ0) | inactive: -0.082 | inactive: -0.255 | inactive: 0.231 | inactive: -0.206 | inactive: 0.048 |
| CRPPA (UniProt A4D126) | inactive: 0.015 | inactive: 0.039 | inactive: -0.03 | inactive: -0.004 | inactive: -0.008 |
| CUEDC2 (UniProt Q9H467) | inactive: -0.01 | inactive: 0.151 | inactive: -0.012 | inactive: 0.003 | inactive: 0.066 |
| CS (UniProt O75390) | inactive: 0.009 | inactive: 0.046 | inactive: 0.014 | inactive: -0.012 | inactive: 0.01 |
| CRYZL1 (UniProt O95825) | inactive: 0.008 | inactive: 0.128 | inactive: -0.026 | inactive: -0.01 | inactive: -0.014 |
| CUSTOS (UniProt Q96C57) | inactive: 0.079 | inactive: 0.079 | inactive: -0.01 | inactive: 0.052 | inactive: 0 |
| CRYAB (UniProt P02511) | inactive: 0.054 | inactive: 0.135 | inactive: -0.079 | inactive: 0.092 | inactive: 0.036 |
| CTSZ (UniProt Q9UBR2) | inactive: 0.027 | inactive: 0.14 | inactive: 0.029 | inactive: 0.013 | inactive: -0.016 |
| CYC1 (UniProt P08574) | inactive: -0.074 | inactive: 0.08 | inactive: 0.021 | inactive: -0.029 | inactive: 0.003 |

Taken from above:
Value of CSK (UniProt P41240) under log2 fold change (silmitasertib): inactive: -0.006
Value of CRYZL1 (UniProt O95825) under log2 fold change (vorinostat): inactive: 0.128
